Experimental data published in the supplement of paper PMC8728848.
This is one part of the list.

Tests used:
Assay in all cases: glycan array binding signal (z-score within array); higher = stronger binding
Details in all cases: glycan notation: IUPAC condensed, linker removed
[1] = molecular target: Gal(b1-4)GlcNAc(b1-3)Gal(b1-4)GlcNAc(b1-2)Man(a1-3)[Gal(b1-4)GlcNAc(b1-3)Gal(b1-4)GlcNAc(b1-2)Man(a1-6)]Man(b1-4)GlcNAc(b1-4)[Fuc(a1-6)]GlcNAc
Outline: (§1)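 From the Consortium for Functional Glycomics database, 3228 arrays were curated, keeping only those whose protein sequence was available. Binding is given as a within-array Z-score averaged across arrays sharing a protein sequence and across linkers. Negative Z-scores can be read as non-binding.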

[2] = molecular target: Gal(b1-4)GlcNAc(b1-3)Gal(b1-4)GlcNAc(b1-2)[Gal(b1-4)GlcNAc(b1-3)Gal(b1-4)GlcNAc(b1-6)]Man(a1-6)[Gal(b1-4)GlcNAc(b1-3)Gal(b1-4)GlcNAc(b1-2)Man(a1-3)]Man(b1-4)GlcNAc(b1-4)GlcNAc
Outline: as §1

[3] = molecular target: Gal(b1-4)GlcNAc(b1-3)Gal(b1-4)GlcNAc(b1-2)[Gal(b1-4)GlcNAc(b1-3)Gal(b1-4)GlcNAc(b1-6)]Man(a1-6)[Gal(b1-4)GlcNAc(b1-3)Gal(b1-4)GlcNAc(b1-2)Man(a1-3)]Man(b1-4)GlcNAc(b1-4)[Fuc(a1-6)]GlcNAc
Outline: as §1

[4] = molecular target: Gal(b1-4)GlcNAc(b1-3)Gal(b1-4)GlcNAc(b1-3)Gal(b1-4)GlcNAc
Outline: as §1

[5] = molecular target: Gal(b1-4)GlcNAc(b1-3)Gal(b1-4)GlcNAc(b1-3)Gal(b1-4)GlcNAc(b1-2)Man(a1-3)[Gal(b1-4)GlcNAc(b1-3)Gal(b1-4)GlcNAc(b1-3)Gal(b1-4)GlcNAc(b1-2)Man(a1-6)]Man(b1-4)GlcNAc(b1-4)GlcNAc
Outline: as §1

[6] = molecular target: Gal(b1-4)GlcNAc(b1-3)Gal(b1-4)GlcNAc(b1-3)Gal(b1-4)GlcNAc(b1-2)Man(a1-3)[Gal(b1-4)GlcNAc(b1-3)Gal(b1-4)GlcNAc(b1-3)Gal(b1-4)GlcNAc(b1-2)Man(a1-6)]Man(b1-4)GlcNAc(b1-4)[Fuc(a1-6)]GlcNAc
Outline: as §1

[7] = molecular target: Gal(b1-4)GlcNAc(b1-3)Gal(b1-4)GlcNAc(b1-3)Gal(b1-4)GlcNAc(b1-2)[Gal(b1-4)GlcNAc(b1-3)Gal(b1-4)GlcNAc(b1-3)Gal(b1-4)GlcNAc(b1-6)]Man(a1-6)[Gal(b1-4)GlcNAc(b1-3)Gal(b1-4)GlcNAc(b1-3)Gal(b1-4)GlcNAc(b1-2)Man(a1-3)]Man(b1-4)GlcNAc(b1-4)[Fuc(a1-6)]GlcNAc
Outline: as §1

[8] = molecular target: Gal(b1-4)GlcNAc(b1-3)Gal(b1-4)GlcNAc(b1-3)Gal(b1-4)GlcNAc(b1-3)Gal(b1-4)GlcNAc(b1-2)Man(a1-3)[Gal(b1-4)GlcNAc(b1-3)Gal(b1-4)GlcNAc(b1-3)Gal(b1-4)GlcNAc(b1-3)Gal(b1-4)GlcNAc(b1-2)Man(a1-6)]Man(b1-4)GlcNAc(b1-4)GlcNAc
Outline: as §1

[9] = molecular target: Gal(b1-4)GlcNAc(b1-3)Gal(b1-4)GlcNAc(b1-3)Gal(b1-4)GlcNAc(b1-3)Gal(b1-4)GlcNAc(b1-2)Man(a1-3)[Gal(b1-4)GlcNAc(b1-3)Gal(b1-4)GlcNAc(b1-3)Gal(b1-4)GlcNAc(b1-3)Gal(b1-4)GlcNAc(b1-2)Man(a1-6)]Man(b1-4)GlcNAc(b1-4)[Fuc(a1-6)]GlcNAc
Outline: as §1

[10] = molecular target: Gal(b1-4)GlcNAc(b1-3)Gal(b1-4)GlcNAc(b1-3)Gal(b1-4)GlcNAc(b1-3)Gal(b1-4)GlcNAc(b1-2)[Gal(b1-4)GlcNAc(b1-3)Gal(b1-4)GlcNAc(b1-3)Gal(b1-4)GlcNAc(b1-3)Gal(b1-4)GlcNAc(b1-6)]Man(a1-6)[Gal(b1-4)GlcNAc(b1-3)Gal(b1-4)GlcNAc(b1-3)Gal(b1-4)GlcNAc(b1-3)Gal(b1-4)GlcNAc(b1-2)Man(a1-3)]Man(b1-4)GlcNAc(b1-4)[Fuc(a1-6)]GlcNAc
Outline: as §1

[11] = molecular target: Gal(b1-4)GlcNAc(b1-3)Gal(b1-4)GlcNAc(b1-3)Gal(b1-4)GlcNAc(b1-3)Gal(b1-4)GlcNAc(b1-3)Gal(b1-4)GlcNAc(b1-2)Man(a1-3)[Gal(b1-4)GlcNAc(b1-3)Gal(b1-4)GlcNAc(b1-3)Gal(b1-4)GlcNAc(b1-3)Gal(b1-4)GlcNAc(b1-3)Gal(b1-4)GlcNAc(b1-2)Man(a1-6)]Man(b1-4)GlcNAc(b1-4)GlcNAc
Outline: as §1

[12] = molecular target: Gal(b1-4)GlcNAc(b1-3)Gal(b1-4)GlcNAc(b1-3)Gal(b1-4)GlcNAc(b1-3)Gal(b1-4)GlcNAc(b1-3)Gal(b1-4)GlcNAc(b1-2)Man(a1-3)[Gal(b1-4)GlcNAc(b1-3)Gal(b1-4)GlcNAc(b1-3)Gal(b1-4)GlcNAc(b1-3)Gal(b1-4)GlcNAc(b1-3)Gal(b1-4)GlcNAc(b1-2)Man(a1-6)]Man(b1-4)GlcNAc(b1-4)[Fuc(a1-6)]GlcNAc
Outline: as §1

[13] = molecular target: Gal(b1-4)GlcNAc(b1-3)Gal(b1-4)GlcNAc(b1-3)Gal(b1-4)GlcNAc(b1-3)Gal(b1-4)GlcNAc(b1-3)Gal(b1-4)GlcNAc(b1-2)[Gal(b1-4)GlcNAc(b1-3)Gal(b1-4)GlcNAc(b1-3)Gal(b1-4)GlcNAc(b1-3)Gal(b1-4)GlcNAc(b1-3)Gal(b1-4)GlcNAc(b1-6)]Man(a1-6)[Gal(b1-4)GlcNAc(b1-3)Gal(b1-4)GlcNAc(b1-3)Gal(b1-4)GlcNAc(b1-3)Gal(b1-4)GlcNAc(b1-3)Gal(b1-4)GlcNAc(b1-2)Man(a1-3)]Man(b1-4)GlcNAc(b1-4)[Fuc(a1-6)]GlcNAc
Outline: as §1

[14] = molecular target: Gal(b1-4)GlcNAc(b1-3)Gal(b1-4)GlcNAc(b1-3)Gal(b1-4)GlcNAc(b1-3)Gal(b1-4)GlcNAc(b1-3)Gal(b1-4)GlcNAc(b1-3)Gal(b1-4)GlcNAc(b1-2)Man(a1-3)[Gal(b1-4)GlcNAc(b1-3)Gal(b1-4)GlcNAc(b1-3)Gal(b1-4)GlcNAc(b1-3)Gal(b1-4)GlcNAc(b1-3)Gal(b1-4)GlcNAc(b1-3)Gal(b1-4)GlcNAc(b1-2)Man(a1-6)]Man(b1-4)GlcNAc(b1-4)GlcNAc
Outline: as §1

[15] = molecular target: Gal(b1-4)GlcNAc(b1-3)Gal(b1-4)GlcNAc(b1-3)GalNAc
Outline: as §1

[16] = molecular target: Gal(b1-4)GlcNAc(b1-3)Gal(b1-4)GlcNAc(b1-3)[Gal(b1-4)GlcNAc(b1-3)Gal(b1-4)GlcNAc(b1-6)]GalNAc
Outline: as §1

[17] = molecular target: Gal(b1-4)GlcNAc(b1-3)Gal(b1-4)GlcNAc(b1-6)[Gal(b1-3)]GalNAc
Outline: as §1

[18] = molecular target: Gal(b1-4)GlcNAc(b1-3)Gal(b1-4)[Fuc(a1-3)]GlcNAc(b1-3)Gal(b1-4)[Fuc(a1-3)]GlcNAc
Outline: as §1

[19] = molecular target: Gal(b1-4)GlcNAc(b1-3)GalNAc
Outline: as §1

[20] = molecular target: Gal(b1-4)GlcNAc(b1-3)[Fuc(a1-3)GlcNAc(b1-6)]Gal(b1-4)Glc
Outline: as §1

[21] = molecular target: Gal(b1-4)GlcNAc(b1-3)[Gal(b1-4)GlcNAc(b1-6)]Gal(b1-4)GlcNAc
Outline: as §1

[22] = molecular target: Gal(b1-4)GlcNAc(b1-3)[GlcNAc(b1-6)]Gal(b1-4)GlcNAc
Outline: as §1

[23] = molecular target: Gal(b1-4)GlcNAc(b1-6)Gal(b1-4)GlcNAc
Outline: as §1

[24] = molecular target: Gal(b1-4)GlcNAc(b1-6)GalNAc
Outline: as §1

[25] = molecular target: Gal(b1-4)GlcNAc(b1-6)[Gal(b1-3)]GalNAc
Outline: as §1

[26] = molecular target: Gal(b1-4)GlcNAc(b1-6)[Gal(b1-4)GlcNAc(b1-3)]GalNAc
Outline: as §1

Gal(b1-4)GlcNAc6P = molecular target: Gal(b1-4)GlcNAc6P
Outline: as §1

Gal(b1-6)Gal = molecular target: Gal(b1-6)Gal
Outline: as §1

Gal3S(b1-3)GalNAc = molecular target: Gal3S(b1-3)GalNAc
Outline: as §1

Gal3S(b1-3)GlcNAc = molecular target: Gal3S(b1-3)GlcNAc
Outline: as §1

[27] = molecular target: Gal3S(b1-3)[Fuc(a1-4)]GlcNAc
Outline: as §1

Gal3S(b1-4)Glc = molecular target: Gal3S(b1-4)Glc
Outline: as §1

Gal3S(b1-4)Glc6S = molecular target: Gal3S(b1-4)Glc6S
Outline: as §1

Gal3S(b1-4)GlcNAc = molecular target: Gal3S(b1-4)GlcNAc
Outline: as §1

[28] = molecular target: Gal3S(b1-4)[Fuc(a1-3)]Glc6S
Outline: as §1

[29] = molecular target: Gal3S(b1-4)[Fuc(a1-3)]GlcNAc
Outline: as §1

[30] = molecular target: Gal3S(b1-4)[Fuc(a1-3)]GlcNAc6S
Outline: as §1

B1: MtEccB1 (Mycobacterium tuberculosis H37Rv), O69734 (protein)
chain: MGLRLTTKVQVSGWRFLLRRLEHAIVRRDTRMFDDPLQFYSRSIALGIVVAVLILAGAALLAYFKPQGKLGGTSLFTDRATNQLYVLLSGQLHPVYNLTSARLVLGNPANPATVKSSELSKLPMGQTVGIPGAPYATPVSAGSTSIWTLCDTVARADSTSPVVQTAVIAMPLEIDASIDPLQSHEAVLVSYQGETWIVTTKGRHAIDLTDRALTSSMGIPVTARPTPISEGMFNALPDMGPWQLPPIPAAGAPNSLGLPDDLVIGSVFQIHTDKGPQYYVVLPDGIAQVNATTAAALRATQAHGLVAPPAMVPSLVVRIAERVYPSPLPDEPLKIVSRPQDPALCWSWQRSAGDQSPQSTVLSGRHLPISPSAMNMGIKQIHGTATVYLDGGKFVALQSPDPRYTESMYYIDPQGVRYGVPNAETAKSLGLSSPQNAPWEIVRLLVDGPVLSKDAALLEHDTLPADPSPRKVPAGASGAP
glycan array binding signal (z-score) [1]: 1.86 | glycan array binding signal (z-score) [2]: 2.86 | glycan array binding signal (z-score) [3]: 0.497 | glycan array binding signal (z-score) [4]: 2.06 | glycan array binding signal (z-score) [5]: 0.867 | glycan array binding signal (z-score) [6]: 0.884 | glycan array binding signal (z-score) [7]: 1.3 | glycan array binding signal (z-score) [8]: 0.021 | glycan array binding signal (z-score) [9]: 1.01 | glycan array binding signal (z-score) [10]: 1.93 | glycan array binding signal (z-score) [11]: 0.215 | glycan array binding signal (z-score) [12]: -0.351 | glycan array binding signal (z-score) [13]: 1.53 | glycan array binding signal (z-score) [14]: 2.86 | glycan array binding signal (z-score) [15]: -1.19 | glycan array binding signal (z-score) [16]: -0.178 | glycan array binding signal (z-score) [17]: 0.271 | glycan array binding signal (z-score) [18]: 0.353 | glycan array binding signal (z-score) [19]: 0.348 | glycan array binding signal (z-score) [20]: -1.02 | glycan array binding signal (z-score) [21]: -0.605 | glycan array binding signal (z-score) [22]: 0.413 | glycan array binding signal (z-score) [23]: 0.467 | glycan array binding signal (z-score) [24]: 0.63 | glycan array binding signal (z-score) [25]: -0.463 | glycan array binding signal (z-score) [26]: 1.45 | glycan array binding signal (z-score) (Gal(b1-4)GlcNAc6P): 0.239 | glycan array binding signal (z-score) (Gal(b1-6)Gal): -0.836 | glycan array binding signal (z-score) (Gal3S(b1-3)GalNAc): 0.054 | glycan array binding signal (z-score) (Gal3S(b1-3)GlcNAc): 1.11 | glycan array binding signal (z-score) [27]: 1.42 | glycan array binding signal (z-score) (Gal3S(b1-4)Glc): 1.08 | glycan array binding signal (z-score) (Gal3S(b1-4)Glc6S): 0.396 | glycan array binding signal (z-score) (Gal3S(b1-4)GlcNAc): 0.016 | glycan array binding signal (z-score) [28]: -0.428 | glycan array binding signal (z-score) [29]: -0.872 | glycan array binding signal (z-score) [30]: 0.115
